Assays:
[1] = target: recombinant human Jak3 (aa811-1124) (Homo sapiens (Human), UniProt P52333); type: biochemical
[2] = system: collagen type I (Col1a2) gene expression in rat tail tendon fascicles; test: Ex vivo assay, Col1a2 mRNA in tendon fascicles (qPCR); type: cell-based, Sprague Dawley rat; details: read-out: Ex vivo Col1a2 (EC50 uM)
[3] = system: Scleraxis (Scx) gene transcriptional activation in TT-D6 Scx-luciferase (ScxL) cell line; test: SCX-LUC in vitro assay (Scx-luciferase reporter); type: cell-based; details: Mus musculus, read-out: Scx-Luc (EC50 uM)
[4] = system: Tenomodulin (Tnmd) gene expression in rat tail tendon fascicles; test: Ex vivo assay, Tnmd mRNA in tendon fascicles (qPCR); type: cell-based, Sprague Dawley rat; details: read-out: Ex vivo Tnmd (EC50 uM)

Protein sequences, listed by entry. Tags and fused reporters are not part of them. Residues count along the entry.
UniProt P52333, 811-1124: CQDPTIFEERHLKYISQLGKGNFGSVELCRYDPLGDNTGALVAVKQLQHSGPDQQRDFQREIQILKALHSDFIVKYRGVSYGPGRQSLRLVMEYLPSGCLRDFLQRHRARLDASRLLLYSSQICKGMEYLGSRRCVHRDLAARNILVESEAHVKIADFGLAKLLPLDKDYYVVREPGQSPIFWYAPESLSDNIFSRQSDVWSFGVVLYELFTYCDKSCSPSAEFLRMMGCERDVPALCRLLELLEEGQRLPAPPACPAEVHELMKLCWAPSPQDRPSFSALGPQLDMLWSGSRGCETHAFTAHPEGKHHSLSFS

Row | SMILES | IC50 [1] [µM] | EC50 [2] [µM] | EC50 [3] [µM] | EC50 [4] [µM]
1 | CC[C@@](C)(Nc1ccnc(-c2c[nH]c3ncccc23)n1)C(=O)NCC(F)(F)F [reference compound] | 0.01 | – | – | –
2 | C[C@@H]1CCN(C(=O)CC#N)C[C@@H]1N(C)c1ncnc2[nH]ccc12 [reference compound] | – | 2.75 | 0.37 | 1.26
